Measured values as given in patent publication US6589974B1, “Pyrazolyl benzyl ether derivatives containing a fluoromethoxyimino group and use thereof as pesticides” (Bayer Aktiengesellschaft, priority 1999, dated 2003).
Some of these results come from one statement about several compounds together.

How the values were obtained:
Format in all cases: in vivo
[1] = test system: Venturia inaequalis; assay: Venturia Test (apple)/protective; conditions: protective, application rate 10 g/ha, evaluation 12 days after inoculation
[2] = test system: Plasmopara viticola; assay: Plasmopara Test (Grape vine)/protective; conditions: protective, application rate 100 g/ha, evaluation 6 days after inoculation
[3] = test system: Sphaerotheca fuliginea; assay: Sphaerotheca Test (cucumber)/protective; conditions: protective, application rate 100 g/ha, evaluation 10 days after inoculation
[4] = test system: Leptosphaeria nodorum; assay: Leptosphaeria nodorum Test (wheat)/protective; conditions: protective, application rate 750 g/ha, evaluation 12-14 days after inoculation
[5] = test system: Alternaria solani; assay: Alternaria Test (tomato)/protective; conditions: protective, application rate 750 g/ha, evaluation 7 days after inoculation

`COC(=O)C(=NOCF)c1ccccc1OCc1ccn(-c2cc(Cl)cc(Cl)c2)n1` [Example 15] was tested, and the efficacy [1] was no less than 98%, the efficacy [2] was no less than 95% and the efficacy [3] was no less than 93%.
`CNC(=O)C(=NOCF)c1ccccc1OCc1ccn(-c2ccc(F)cc2)n1` [Example 3] gave an efficacy [1] of no less than 98%, an efficacy [2] of no less than 95% and an efficacy [3] of no less than 93%.
With `CNC(=O)C(=NOCF)c1ccccc1COc1ccn(-c2ccc(Cl)cc2)n1` [Example 2, 2-[2-({[1-(4-chlorophenyl)-1H-pyrazol-3-yl]oxy}methyl)phenyl]-2-[(fluoromethoxy)imino]-N-methylacetamide] the efficacy [1] was no less than 98%, the efficacy [2] was no less than 95% and the efficacy [4] was no less than 94%. The efficacy [5] was no less than 80% and the efficacy [3] was no less than 93%.
`COC(=O)C(=NOCF)c1ccccc1OCc1ccn(-c2ccc(F)cc2F)n1` [Example 26] gave an efficacy [1] of no less than 98%, an efficacy [2] of no less than 95% and an efficacy [3] of no less than 93%.
`COC(=O)C(=NOCF)c1ccccc1OCc1ccn(-c2ccc(C)c(C)c2)n1` [Example 28] was tested, and the efficacy [1] was no less than 98%, the efficacy [2] was no less than 95% and the efficacy [3] was no less than 93%.
Work on `CNC(=O)C(=NOCF)c1ccccc1OCc1ccn(-c2cccc(Br)c2)n1` [Example 5] yielded an efficacy [1] of no less than 98%, an efficacy [2] of no less than 95% and an efficacy [3] of no less than 93%.
`CNC(=O)C(=NOCF)c1ccccc1OCc1ccn(-c2cc(Cl)cc(Cl)c2)n1` [Example 7] gave an efficacy [1] of no less than 98%, an efficacy [2] of no less than 95% and an efficacy [3] of no less than 93%.
`COC(=O)C(=NOCF)c1ccccc1OCc1ccn(-c2ccc(F)cc2)n1` [Example 17] was tested, and the efficacy [1] was no less than 98%, the efficacy [2] was no less than 95% and the efficacy [3] was no less than 93%.
In the case of `CNC(=O)C(=NOCF)c1ccccc1OCc1ccn(-c2ccccc2)n1` [Example 18], the efficacy [1] is reported as no less than 98%, the efficacy [2] is reported as no less than 95% and the efficacy [3] is reported as no less than 93%.
`COC(=O)C(=NOCF)c1ccccc1COc1ccn(-c2ccc(Cl)cc2)n1` [Example 1, methyl 2-[2-({[1-(4-chlorophenyl)-1H-pyrazol-3-yl]oxy}methyl)phenyl]-2-[(fluoromethoxy)imino]acetate] gave an efficacy [1] of no less than 98%, an efficacy [2] of no less than 95% and an efficacy [4] of no less than 94%. It also gave an efficacy [5] of no less than 80% and an efficacy [3] of no less than 93%.
`CNC(=O)C(=NOCF)c1ccccc1OCc1ccn(-c2ccc(Br)cc2)n1` [Example 6] showed an efficacy [1] of no less than 98%, an efficacy [2] of no less than 95% and an efficacy [3] of no less than 93%.
In the case of `COC(=O)C(=NOCF)c1ccccc1OCc1ccn(-c2ccc(C(C)C)cc2)n1` [Example 4], the efficacy [1] is reported as no less than 98%, the efficacy [2] is reported as no less than 95% and the efficacy [3] is reported as no less than 93%.
Molecule `COC(=O)C(=NOCF)c1ccccc1OCc1ccn(-c2ccc(Cl)cc2Cl)n1` [Example 11] has an efficacy [1] of no less than 98%, an efficacy [2] of no less than 95% and an efficacy [3] of no less than 93%.
Molecule `COC(=O)C(=NOCF)c1ccccc1OCc1ccn(-c2ccccc2)n1` [Example 14] has an efficacy [1] of no less than 98%, an efficacy [2] of no less than 95% and an efficacy [3] of no less than 93%.
Molecule `COC(=O)C(=NOCF)c1ccccc1OCc1ccn(-c2cccc(Cl)c2Cl)n1` [Example 27] has an efficacy [1] of no less than 98%, an efficacy [2] of no less than 95% and an efficacy [3] of no less than 93%.
In the case of `COC(=O)C(=NOCF)c1ccccc1OCc1ccn(-c2cccc(Br)c2)n1` [Example 16], the efficacy [1] is reported as no less than 98%, the efficacy [2] is reported as no less than 95% and the efficacy [3] is reported as no less than 93%.
`COC(=O)C(=NOCF)c1ccccc1OCc1ccn(-c2ccccc2Cl)n1` [Example 8] gave an efficacy [1] of no less than 98%, an efficacy [2] of no less than 95% and an efficacy [3] of no less than 93%.
Molecule `COC(=O)C(=NOCF)c1ccccc1OCc1ccn(-c2ccc(Br)cc2)n1` [Example 13] has an efficacy [1] of no less than 98%, an efficacy [2] of no less than 95% and an efficacy [3] of no less than 93%.
Work on `CNC(=O)C(=NOCF)c1ccccc1OCc1ccn(-c2cccc(C)c2)n1` [Example 31] yielded an efficacy [1] of no less than 98%, an efficacy [2] of no less than 95% and an efficacy [3] of no less than 93%.
Work on `CNC(=O)C(=NOCF)c1ccccc1OCc1ccn(-c2ccc(Cl)cc2Cl)n1` [Example 19] yielded an efficacy [1] of no less than 98%, an efficacy [2] of no less than 95% and an efficacy [3] of no less than 93%.
